At least one compound was matched to its structure with a doubt left.
Experiments:
[1] = test system: Tetracycline susceptible S. epidermis; test: SPR angle shift, tetracycline sensitivity test (susceptible strain); format: cell-based
[2] = test system: Tetracycline resistant S. epidermis; test: SPR angle shift, tetracycline resistance test (resistant strain); format: cell-based; conditions: over five hours, 50 and 10 μg/ml (FIGS. 12, 14)

CN(C)[C@@H]1C(O)=C(C(N)=O)C(=O)[C@@]2(O)C(O)=C3C(=O)c4c(O)cccc4[C@@](C)(O)[C@H]3C[C@@H]12 [tetracycline]
SPR curve compared with resistant strain ([1]; about 30 minutes of 1 μg/ml treatment (FIGS. 13 and 14)): more obvious fluctuation
shift of SPR angle ([1]; over five hours, 50 and 10 μg/ml (FIGS. 11, 13)): irregular
shift of SPR angle [2]: smooth and monotonic
